Entries after “also recorded” stand apart in the source; their conditions may differ. Not every detail of the peptide structures is certain; ends, links or a residue may be inferred. Some compounds share one wording; it may come from a single statement. Where a SMILES comes first, the peptide text is derived from it. Bridges are numbered along the chain shown (N, C = ends). The star is where a group is joined. Acetyl(2-naphthyl) = O=C(Cc1ccc2ccccc2c1)*
What was measured:
anesthetized rats = test: Diuresis in anesthetized rats; format: in vivo, rat; conditions: infused at 5 mcg/min via femoral vein; versus baseline; FIG. 3
Method: In one set of examples, cannulae were placed in the left and right ureters and femoral vein of anesthetized rats and urine was collected from the ureters. Analog peptides were administered via the femoral vein. Prior to infusing the analog peptides, saline was infused for 30 minutes, urine was collected for 6 five-minute baseline periods and urine volume was determined gravimetrically. Following these baseline collection periods, various analog peptides were infused for 30 or 60 minutes and urine volume was measured in five-minute periods during infusion and for 60 minutes following infusion (at which time rats were returned to saline). Data was examined by averaging urine flow rates for six five-minute baseline control periods immediately preceding infusion, and comparing values during and after administration of peptides with the "baseline" control values. Responses to peptides are thus evaluated and plotted as the percent of baseline control responses. Specific examples are shown in FIGS. 3A-H. The error bars at the beginning of the graphs represent baseline values +standard deviations. Responses to peptides that are substantially above baseline ±SD can thus be interpreted as being statistically significant increases.

[1] = system: pentobarbital-anesthetized dogs; test: Diuresis and natriuresis in anesthetized dogs; format: in vivo, dog
Method: In these examples, cannulae were placed in the left and right ureters and femoral vein of anesthetized dogs and urine was collected from the ureters. Analog peptides were administered via the femoral vein. Prior to infusing analog peptides, saline was infused for 30 minutes and urine was then collected for three ten-minute collection periods. Urine volume was determined gravimetrically and urine sodium was determined photometrically.
Following these three baseline collection periods, the selected analog peptides were infused for 60 minutes and urinary flow was measured for an additional 60 minutes following infusion. During infusion (60 minutes) and recovery (60 minutes), ten-minute collection periods were obtained. Control animals which received only saline were studied in parallel.
Data were examined by comparing urine flow rates for dogs infused with peptides AP101 (3 mcg/kg/min), AP306 (3 mcg/kg/min), AP324 (3 mcg/kg/min),or AP314 (1 mcg/kg/min) against control animals infused with saline.

Row | Compound | urine flow rate (urine volume), diuretic response (anesthetized rats) | Peak Urine Flow Rate V ([1]; 3 mcg/kg/min infused 60 min, *P<0.05, control 0.61) [mL/min] | urine flow rate and urinary sodium excretion (diuresis, natriuresis), in words ([1]; 3 mcg/kg/minute infusion)
1 | CC[C@H](C)[C@@H]1NC(=O)[C@H](CCCNC(=N)N)NC(=O)[C@H](CC(=O)O)NC(=O)[C@H]([C@@H](C)CC)NC(=O)[C@H](CCCNC(=N)N)NC(=O)CNC(=O)CNC(=O)[C@H](Cc2ccccc2)NC(=O)[C@@H](NC(=O)[C@H](CO)NC(=O)[C@H](CO)NC(=O)[C@@H](N)CCCNC(=N)N)CSSC[C@@H](C(=O)N[C@@H](CC(N)=O)C(=O)N[C@@H](CO)C(=O)N[C@@H](Cc2ccccc2)C(=O)N[C@@H](CCCNC(=N)N)C(=O)N[C@@H](Cc2ccc(O)cc2)C(=O)O)NC(=O)CNC1=O [AP21] (H-RSSCFGGRIDRIGCNSFRY-OH; disulfide 4-14) | significantly increased |  | 
2 | CC[C@H](C)[C@H](NC(=O)[C@H](CCCNC(=N)N)NC(=O)[C@H](CC(=O)O)NC(=O)[C@@H](NC(=O)[C@H](CCCNC(=N)N)NC(=O)CNC(=O)CNC(=O)Cc1ccc2ccccc2c1)[C@@H](C)CC)C(=O)NCC(=O)N[C@@H](C)C(N)=O [AP306, (2--Naphthylacetyl)-G-G-R-I-D-R-I-G-A-NH2] ({Acetyl(2-naphthyl)}-GGRIDRIGA-NH2) |  | 2.09 | cause diuresis; also recorded: significantly increased
